Record: PubChem BioAssay AID504764 (Drosophila RNAi Screening Center, 2011)

Assay: 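Genome-wide screen for regulators of Notch-driven gene expression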 (primary screen)
Cell system: Drosophila Kc167 cells
Reagent: long dsRNA against Drosophila genes
Time to read-out: about 5 days (4 days dsRNA, then 24 h after transfection)
Treatment: transfection of constitutively active membrane-tethered Notch lacking the extracellular domain, read 24 h later
Measured: 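Light from a Notch-responsive E(spl)m3 luciferase reporter under active Notch, with control-promoter and no-Notch reporter wells to normalise; raw counts from paired wells a and b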
Direction: induced reporter light, run 1, well a and induced reporter light, run 1, well b: higher = more light from the Notch target reporter with active Notch; control promoter light, run 1, well a and control promoter light, run 1, well b: higher = more light from the viral control promoter (cell number, transfection, viability); uninduced reporter light, run 1, well a: higher = more light from the Notch target reporter without active Notch
Rule for the call: 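Hit if the duplicate-averaged log2 ratio of induced to control-promoter light gives a plate-wise z beyond ±2, or induced to uninduced beyond ±1.8; weak-control or discordant-duplicate wells dropped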
Calls: active = modifier hit (raised or lowered Notch signal); inactive = not a hit
The screen tested about 22,000 reagents; shown is an unselected part of those with a known target gene and a result. Over the whole deposit, 403 (1.9%) got an active call. 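Unnormalised raw counts per well; ratio z-scores behind the hit calls and whether each hit raises or lowers signal are not deposited.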 A number with no mark means an inactive call. Names joined by + are all predicted targets of the reagent. Not stated in the record: the amount of reagent.

gene knocked down,amplicon,"induced reporter light, run 1, well a","induced reporter light, run 1, well b","control promoter light, run 1, well a","control promoter light, run 1, well b","uninduced reporter light, run 1, well a"
CG42376 + cin,DRSC18752,58540,80250,70390,85620,5015
r + CG13012,DRSC19531,74360,62390,98930,76885,12225
luna,DRSC05253,1.73e5,1.64e5,2.14e5,2.72e5,15765
luna,DRSC06663,8830,7605,10885,10010,2660
luna,DRSC07336,1.90e5,1.62e5,2.19e5,2.13e5,14210
dpr7,DRSC17109,64020,87600,1.05e5,85685,6295
CG13970,DRSC02311,43590,30270,39625,40310,2935
CG14537,DRSC02395,1.33e5,1.59e5,87285,1.15e5,22160
Andorra,DRSC19475,23615,29130,22890,20305,3015
CG9981,DRSC20225,63745,64270,77775,80555,7170
CG9316,DRSC03195,48020,45840,55245,32830,2378
Cyp316a1,DRSC11130,1.43e5,1.68e5,1.68e5,1.47e5,8065
Nct,DRSC16172,36200,37005,41725,38125,3620
CG14052,DRSC17907,1.66e5,1.55e5,2.42e5,2.69e5,10020
CG14052,DRSC18192,94870,1.07e5,1.97e5,1.51e5,7085
CCT4,DRSC02865,44850,46635,44640,46765,4240
CG42714,DRSC08798,1.83e5,1.85e5,1.84e5,1.98e5,15145
CG15483,DRSC02493,1.32e5,1.70e5,1.43e5,1.63e5,12515
CG31087,DRSC14253,1.66e5,1.60e5,2.20e5,2.16e5,15005
CG43325,DRSC04157,1.89e5,2.19e5,2.22e5,2.02e5,13475
TpnC25D,DRSC02965,1.56e5,1.27e5,1.33e5,1.40e5,7915
CG5541,DRSC19946,1.54e5,1.58e5,2.09e5,1.73e5,11275
MED30,DRSC08516,31620,36265,62340,60820,8040
glu,DRSC03539,2.50e5 (active),2.15e5,1.48e5,1.47e5,12530
CG44836,DRSC09915,1.85e5,1.42e5,2.03e5,1.89e5,10078
VhaSFD,DRSC03471,1.89e5 (active),1.88e5,1.82e5,1.73e5,11132
Dhc98D,DRSC16645,1.50e5,1.58e5,1.71e5,1.67e5,12200
Nlg3,DRSC12477,1.27e5,1.78e5,1.57e5,1.52e5,11320
Nlg3,DRSC12524,72185,80535,1.32e5,62310,6630
Nlg3,DRSC12540,55925,76720,45315,37525,5570
Nlg3,DRSC12574,57105,96375,57650,56660,5128
Eo,DRSC20187,1.09e5,96170,1.15e5,98155,11050
Cpr11B,DRSC19859,1.47e5,1.45e5,1.87e5,2.13e5,12555
osa,DRSC17022,2.37e5,2.35e5,2.72e5,3.59e5,17585

Ordered by “control promoter light, run 1, well a” (ascending): 4 of the entries above
gene knocked down,amplicon,"induced reporter light, run 1, well a","induced reporter light, run 1, well b","control promoter light, run 1, well a","control promoter light, run 1, well b","uninduced reporter light, run 1, well a"
MED30,DRSC08516,31620,36265,62340,60820,8040
TpnC25D,DRSC02965,1.56e5,1.27e5,1.33e5,1.40e5,7915
CG5541,DRSC19946,1.54e5,1.58e5,2.09e5,1.73e5,11275
CG43325,DRSC04157,1.89e5,2.19e5,2.22e5,2.02e5,13475
